Experimental data from patent US6939538B2, “Extended release analgesic for pain control” (Biomedical Research Models, Inc., priority 2002, dated 2005).

Experiments:
[1] = injected into rats; observation of rat mobility
[2] = background; mean/effective residence time; cited from earlier work

For `CN1CC[C@]23c4c5ccc(O)c4O[C@H]2[C@@H](O)C=C[C@H]3[C@H]1C5.O=S(=O)(O)O` [Aqueous Morphine, control, morphine sulfate], the “Time duration of analgesic effects” value [1] was 2 h.

For `CN1CC[C@]23c4c5ccc(O)c4O[C@H]2[C@@H](O)C=C[C@H]3[C@H]1C5` [morphine], the “Residence time in the body” value [2] is given as “only a few hours”.
